# Measured values reported in PMC10792152.
# Chains of the proteins cited; added tags and fusions are not shown.
# UniProt P08515, whole entry: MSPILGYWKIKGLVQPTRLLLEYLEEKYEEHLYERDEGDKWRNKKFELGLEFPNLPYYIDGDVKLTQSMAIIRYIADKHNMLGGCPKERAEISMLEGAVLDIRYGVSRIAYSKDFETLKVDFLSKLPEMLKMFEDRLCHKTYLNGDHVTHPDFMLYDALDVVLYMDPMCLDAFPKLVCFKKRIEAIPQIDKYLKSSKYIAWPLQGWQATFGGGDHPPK
# For at least one entry, the source does not settle the construct or the ends of the probe. For some assays here: No signal at the amounts used counts as a negative.
# Experiments:
# [1] = test system: GST-OsPIL11 (Oryza sativa L.); assay: EMSA; conditions: 10- and 20-fold unlabeled probe reduced the shift (Fig. 5e); Chemiluminescent EMSA kit (Beyotime GS009), biotin probes, 6% non-denaturing polyacrylamide gel; pH and temperature not stated; recombinant protein; protein details: GST (pGEX-4T-1), N-terminal
# GST = GST (UniProt P08515); assay: EMSA; conditions: Chemiluminescent EMSA kit (Beyotime GS009), biotin probes, 6% non-denaturing polyacrylamide gel; pH and temperature not stated; recombinant protein; protein details: GST
sequence,measurement,setting,value
GCCACGCTTTCCACGCACATGTAGAAGACCATGCAGGCAACA (double strand) [YGL3 promoter PBE-box-1 probe],binding result,[1],binds
same,binding result,GST,no binding
